Laboratory results taken from publication PMC7819943, “Rice protein-binding microarrays: a tool to detect cis-acting elements near promoter regions in rice”.
The other results are listed elsewhere or left out.

Amino acid sequences for entries named in this document (tags omitted).
UniProt Q0JBA9, entry or part of it: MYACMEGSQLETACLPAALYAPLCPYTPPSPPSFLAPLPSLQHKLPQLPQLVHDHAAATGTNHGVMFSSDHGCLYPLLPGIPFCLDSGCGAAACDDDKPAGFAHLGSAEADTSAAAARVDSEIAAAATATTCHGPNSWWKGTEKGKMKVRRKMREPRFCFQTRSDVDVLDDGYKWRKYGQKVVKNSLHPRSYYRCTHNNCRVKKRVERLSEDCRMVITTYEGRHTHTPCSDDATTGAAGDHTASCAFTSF

molecular target: OsWRKY34 (Oryza sativa, UniProt Q0JBA9 1-250); assay: protein-binding microarray (RPBM); PBS, 2% BSA, 51.3 ng/ul salmon testes DNA, 50 uM zinc acetate, 200 nM TF, 25 C, 1 h; high values mean tight binding; conditions: protein: recombinant; tags: N-terminal polyhistidine and DsRed monomer fusion (pET32a); label: CyDye5-dUTP incorporated in the synthesized complementary strand; 3' TTTTT single-stranded linker to array surface; dsDNA, one strand shown
Summary of the method: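 Polyhistidine-tagged DsRed fusions of transcription factors, joined at the N-terminus, were expressed in E. coli BL21-CodonPlus and isolated on Ni–NTA. They were incubated at 200 nM for 1 h at 25 °C on a custom Agilent array, double-stranded and BSA-blocked, in PBS with 2% BSA, salmon testes DNA and 50 µM zinc acetate. The binding signal is per-feature fluorescence intensity (arbitrary units) read on an Axon 4000B scanner after washing.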

Sequence	binding signal
AAACTATCCCACAATTTCTTTGTTTTTGGTTGTTCTGTTTCGGAGTCACCTAGTGCAG	10400 fluorescence intensity (a.u.)
TCCTTTCTCTCTCTATTAAACCCACACACACACACACACCCGGAGTCACCTAGTGCAG	8700 fluorescence intensity (a.u.)
ACGCCGCCGCCGCCGCCCTTGGACCCCGCCGTCATCTCCTCGGAGTCACCTAGTGCAG	9150 fluorescence intensity (a.u.)
AATTCTTCTGCGGCACATGGCTTCGTCGCGGCCTCACTCACGGAGTCACCTAGTGCAG	8980 fluorescence intensity (a.u.)
AACTGTTTCACCTGTGGCCTACCTTTATTAAGCATACTTTCGGAGTCACCTAGTGCAG	8280 fluorescence intensity (a.u.)
AAAACTGGCTCTCTTTCACAAGACATTCTCCATTTTCTTTCGGAGTCACCTAGTGCAG	8450 fluorescence intensity (a.u.)
GTATGTGCCACGTCATCCAAAACCGGCCACAATACTGTCGCGGAGTCACCTAGTGCAG	8130 fluorescence intensity (a.u.)
TGCTGGATTGTATTGATGTGTGTGCTTACCTAGTATAAATCGGAGTCACCTAGTGCAG	9300 fluorescence intensity (a.u.)
GGGGAGGGCAGTGGGCCCGTGGCATCGTGCTTTGGGAGCGCGGAGTCACCTAGTGCAG	9000 fluorescence intensity (a.u.)
TAATGATAAACTATTTCTACCGGTTCATTCATATTTTATTCGGAGTCACCTAGTGCAG	8780 fluorescence intensity (a.u.)
TTCTCTTCATAACGAAGGTAGCGAGATCGTTTCCATTTGTCGGAGTCACCTAGTGCAG	8440 fluorescence intensity (a.u.)
ACCACCACCACCGAGTTACCCAACCGTTTCACCTATATAACGGAGTCACCTAGTGCAG	9420 fluorescence intensity (a.u.)
TCAAAAAGCATCTCCCGACGTCGATTCCCAGCATCTCCTTCGGAGTCACCTAGTGCAG	8380 fluorescence intensity (a.u.)
AGCAGCTGTCCTAGTGTTCTCATTTGTCCATTTAGCATAACGGAGTCACCTAGTGCAG	9340 fluorescence intensity (a.u.)
CTGGACAGTGCTTGCCATCTCATGTTAACCTACTTGCTTCCGGAGTCACCTAGTGCAG	10300 fluorescence intensity (a.u.)
AGCTGGGCCGTATCCTGTATTCATGTGGGCTTTCTTGCAACGGAGTCACCTAGTGCAG	9240 fluorescence intensity (a.u.)
TCAATCAAAGTTCAGCCTTTTGCCACTGACAATAATTTTCCGGAGTCACCTAGTGCAG	8910 fluorescence intensity (a.u.)
GAACTCTTCTTTATTTTCTTTTGCTAATTTCAGATTTATTCGGAGTCACCTAGTGCAG	8680 fluorescence intensity (a.u.)
AAAAAAAAACGACGGACGGAGCAACACCACTCCGTCTGCCCGGAGTCACCTAGTGCAG	8600 fluorescence intensity (a.u.)
GGGGATCAGGAGGGATGGGGATTGGGGAGACGAGTGGATGCGGAGTCACCTAGTGCAG	8330 fluorescence intensity (a.u.)
AGAAAATATAGTGCTACTCCGTATCTCGATATCCTTTTTGCGGAGTCACCTAGTGCAG	8480 fluorescence intensity (a.u.)
TGCCAAAAACGCCTCAAAACGCGCCGCCGCCTTTGTTTCCCGGAGTCACCTAGTGCAG	8040 fluorescence intensity (a.u.)
AAATTAACACAACTACTGACCTCATTTCCTCATTGATTATCGGAGTCACCTAGTGCAG	10400 fluorescence intensity (a.u.)
ACTTTAGTTTTTTTCCGTTGCAGCACACGGTTTTTTTTAACGGAGTCACCTAGTGCAG	9170 fluorescence intensity (a.u.)
TGTGGTTGTGCTGATTTGCAGATGAGGGCCTTGCACTGTGCGGAGTCACCTAGTGCAG	8660 fluorescence intensity (a.u.)
TCTGTTCTCCGATTGCTTCTGCTCTCATCTTCTTCCTTGCCGGAGTCACCTAGTGCAG	10700 fluorescence intensity (a.u.)
TGAGAAGTGGTCTTGGTGGTTAGTTGTTTCCGTTGTATTCCGGAGTCACCTAGTGCAG	10300 fluorescence intensity (a.u.)

Sequence	binding signal
GTAGCTTAAGTTTTTCTTCCCGATTCTATTCCTAGGCCGCCGGAGTCACCTAGTGCAG	9180 fluorescence intensity (a.u.)
GATTGCTCCAACTGCCTCCAGGGTTCTAAACATATATGTTCGGAGTCACCTAGTGCAG	10500 fluorescence intensity (a.u.)
TCTAGATTTCTCTCTCTCTCATGCACAATTGCACAGTACACGGAGTCACCTAGTGCAG	8370 fluorescence intensity (a.u.)
TCTTGTGCAACCTTGGTCGACAGGCTTGTTGTTATAGCTCCGGAGTCACCTAGTGCAG	8430 fluorescence intensity (a.u.)
CACCACCACCTCCACCTCCGCCGTGCGGACGCCGCCGGCTCGGAGTCACCTAGTGCAG	8850 fluorescence intensity (a.u.)
TCCGGTTCTCCATTGTCCATTCACCCGGCCCATCTGCAACCGGAGTCACCTAGTGCAG	12000 fluorescence intensity (a.u.)
CTACTCGCTGCTCGCCACCGCGCTGGCCCTCCCCGACGACCGGAGTCACCTAGTGCAG	9500 fluorescence intensity (a.u.)
CCGTCGGCGACGTGGTGTCCTGCTGCTTGACATGTTTTTTCGGAGTCACCTAGTGCAG	9540 fluorescence intensity (a.u.)
CCCCACGCCGCAATCTCGCGAATCCCACCGCTTCCGTTTCCGGAGTCACCTAGTGCAG	8700 fluorescence intensity (a.u.)
CCTCCACTTGGCTCATTTAGCATCTGCCGCAACATTAAGACGGAGTCACCTAGTGCAG	9210 fluorescence intensity (a.u.)
TGCTTAGGTTGGTTGCACTGGGGCGTGTCCTGTGGCCTTTCGGAGTCACCTAGTGCAG	8540 fluorescence intensity (a.u.)
CTTATATTGTACTCCAAGTCTCTATCTCCTATATATGTACCGGAGTCACCTAGTGCAG	9220 fluorescence intensity (a.u.)
GCCCTGATTATATAATCTTCCTCGTTAATCACAGTTTCTACGGAGTCACCTAGTGCAG	11000 fluorescence intensity (a.u.)
AGGATATACTACACCATAAGGTACATATACCTCTCTATACCGGAGTCACCTAGTGCAG	8680 fluorescence intensity (a.u.)
CTATTTTTTCTTTCTTGTTGTTGAAATGTCATCTTCTCAGCGGAGTCACCTAGTGCAG	8800 fluorescence intensity (a.u.)
GGCGCCGTCGTCTTCTTTCCCACGCCGCCGCCGCCGTCAACGGAGTCACCTAGTGCAG	8600 fluorescence intensity (a.u.)
CAATTTAATTTACTCTCTCCTGCATATGCCAAATGCTTCTCGGAGTCACCTAGTGCAG	8470 fluorescence intensity (a.u.)
CCTACATGTCATTGAGCTTTTTATTTTTGATGTTGTCTTGCGGAGTCACCTAGTGCAG	9020 fluorescence intensity (a.u.)
GGAGGAGGAGAAGCTTCTAGAAGGGGAGCGGGGCGGCATGCGGAGTCACCTAGTGCAG	8690 fluorescence intensity (a.u.)
GCGCGGATAAGGGGTGTGTGTTTGGTTGGCGTCTTGGCGACGGAGTCACCTAGTGCAG	12000 fluorescence intensity (a.u.)
TATATCTATGCGACCATGCCCCATTTGCTCGCTGTTTAACCGGAGTCACCTAGTGCAG	8020 fluorescence intensity (a.u.)
ACATCCTTCTGGGTTGATTTTTTTCTATAGAGGGGTAGGTCGGAGTCACCTAGTGCAG	8590 fluorescence intensity (a.u.)
TCTCGAAATTTCCCAACCGCTCGCTCGCCCGCCTCGTCTTCGGAGTCACCTAGTGCAG	9140 fluorescence intensity (a.u.)
GAACCAACCAACCACGCGCGCACGCCCCGCGTCTCGTCGCCGGAGTCACCTAGTGCAG	8550 fluorescence intensity (a.u.)
TTTTGCCACGGTTTATTGTTGAAACAATTTGTCCAAATTTCGGAGTCACCTAGTGCAG	8610 fluorescence intensity (a.u.)
ACGCAATCTGTGTAATTAGTTATTTTTTCGTTTATATTTACGGAGTCACCTAGTGCAG	8710 fluorescence intensity (a.u.)
CTTCCGGCCGACCTTACACCAACCCGACGACCAAGTTGCACGGAGTCACCTAGTGCAG	8190 fluorescence intensity (a.u.)

Look-ups from above.
ACGCAATCTGTGTAATTAGTTATTTTTTCGTTTATATTTACGGAGTCACCTAGTGCAG – binding signal: 8710 fluorescence intensity (a.u.)
CACCACCACCTCCACCTCCGCCGTGCGGACGCCGCCGGCTCGGAGTCACCTAGTGCAG – binding signal: 8850 fluorescence intensity (a.u.)
GCCCTGATTATATAATCTTCCTCGTTAATCACAGTTTCTACGGAGTCACCTAGTGCAG – binding signal: 11000 fluorescence intensity (a.u.)
